According to patent publication US6544773B1, “Microbial process for degradation of PCBS in clophen A-50 using a novel marine microorganism, Pseudomonas CH07” (priority 2001, dated 2003):
Entries after “also recorded” stand apart in the source; their conditions may differ.

System: Pseudomonas CH07
Assay: Degradation of PCB congeners of Clophen A-50 by Pseudomonas CH07 in seawater nutrient broth, GC-ECD analysis
Conditions: for Degradation by Pseudomonas CH07 (in words): congeners present in Clophen A-50, marine condition; for Conc. of PCBs in Control: control without the organism, Clophen A-50 100 ppm in seawater nutrient broth, room temperature
Procedure: A defined seawater nutrient broth medium (code no. 088 from Himedia, Bombay) containing beef extract 3 g L^−1, peptic digest of animal tissue 5 g L^−1 was used. One liter of medium contained 500 ml seawater and 500 ml distilled water and the final pH was adjusted to 7 using 0.1 N NaOH. After autoclaving, the required amount of stock solution (10,000 ppm) of Clophen A-50 was added to the medium in sterile condition to achieve a final concentration of 100 ppm. Immediately after adding the stock PCBs solution, the hexane part of it was evaporated out by gently swirling the flask in sterile condition and sterile glycerol was added to the medium in a 1:1 ratio of stock solution:glycerol. 40 μl of 24 hold culture of Pseudomonas CH07 growths was added in two replicates of 20 ml of test (seawater nutrient broth+Clophen A-50) medium to seawater nutrient broth (without any addition of Clophen A-50). Controls in duplicate were also maintained without the addition of the organism at room temperature (ca. 28°±2° C.). Control and test cultures were maintained at room temperature for two days and at various predecided intervals of time, the samples was taken out aseptically and prepared for GC analysis. The details of the sample preparation is described below.
The PCBs were analyzed following the method described by Boon et al. The method was standardized in our laboratory using the PCBs standards obtained from Promochem, Germany as well as other analytical grade chemicals from E. Merck. The purity of the solvents was checked by Gas chromatography for each of the bottles. The different adsorbents, alumina, silica, were purified by soxhlet extraction with di-chloro-methane (HPLC grade) for about eight hours. The anhydrous Na2SO4 and the glass wool were also purified by Soxhlet extraction with HPLC grade di-chloro methane. The different steps of the analytical methods are illustrated below:
i. Aliquot of 1 ml sample was treated with 1 ml n-hexane (HPLC grade) thrice and thoroughly mixed by a vortex mixture for five minutes each time. The upper part of the solvent layer (solvent extract) was separated with the help of micropipette and transferred to a sterilized glass tube.
ii. Concentrate the solvent extract to 1 ml by evaporation with Snyder column evaporator on a water bath at 85° C.
iii. Purify of the solvent extract by alumina clean up using micro-column technique.
iv. Concentrate the solvent extract to 1 ml by evaporation with Snyder column evaporator on a water bath at 85° C.
v. Isolate PCBs from polar chlorinated compounds by eluting through micro-column of silica.
vi. Concentrate the PCBs fraction to 1 ml by evaporation with Snyder column evaporator on a water bath at 85° C.
vii. Analyze the aliquot by GC-ECD with reference to standard PCBs (individual congeners).
The samples were analyzed by gas chromatography (Varian GC-3380) coupled with an electron capture detector and an autosampler 8200. Capillary column VA-5 (30 m×0.25 mm) was employed with electron capture detector […] for peak detection. Argon with 5% methane was the carrier gas. A temperature program was used (table. 3). […] The experimental condition of the instrument is illustrated in the table-4. The analysis of PCBs was calibrated using the standards for individual congeners of PCBs obtained from Promochem, Germany. Using different dilutions of the stock solution of the standards carried out the calibration of each of the individual congeners. The linearity of the calibration curve was determined with a range of dilution of the mix-standards.

SMILES	Conc. of PCBs in Control [ng/mL]	Degradation by Pseudomonas CH07 (in words)	other results
Clc1ccc(-c2ccc(Cl)c(Cl)c2)cc1Cl [CB-77, 3,3′,4,4′-tetrachlorobiphenyl]	53.37	–	Degradation by Pseudomonas CH07 (in words) (listed as 3,3′,4,4′-tetrachlorobiphenyl): degraded very substantially; Degradation by Pseudomonas CH07 (in words) (listed as cb-77): capable of degrading
Clc1cc(Cl)c(-c2cccc(Cl)c2Cl)cc1Cl [CB-97, 2,2′,3′,4,5-Pentachloro]	8.17	capable of degrading	–
Clc1ccc(Cl)c(-c2cc(Cl)c(Cl)cc2Cl)c1 [CB-101, 2,2′,4,5,5′-Pentachloro]	18.17	capable of degrading	–
Clc1ccc(-c2ccc(Cl)c(Cl)c2Cl)cc1Cl [CB-105, 2,3,3′,4,4′-Pentachloro]	17.54	–	–
Clc1c(Cl)c(Cl)c(-c2ccccc2)c(Cl)c1Cl [CB-116, 2,3,4,5,6-Pentachloro]	10.09	–	–
Clc1ccc(-c2cc(Cl)c(Cl)cc2Cl)cc1Cl [CB-118, 2,3′,4,4′,5-Pentachloro]	1.31	–	–
Clc1cc(Cl)c(-c2ccc(Cl)c(Cl)c2)c(Cl)c1 [CB-119, 2,3′,4,4′,6-Pentachloro]	8.07	–	–
Clc1ccc(-c2cc(Cl)c(Cl)c(Cl)c2)cc1Cl [CB-126, 3,3′,4,4′,5-Pentachloro]	2.75	completely degraded	Time to complete degradation (congener in Clophen A-50, Pseudomonas CH07): about 40 hours; Degradation by Pseudomonas CH07 (in words) (listed as cb-126): capable of degrading
Clc1ccc(-c2ccc(Cl)c(Cl)c2Cl)c(Cl)c1Cl [CB-128, 2,2′,3,3′,4,4′-Hexachloro]	5.02	capable of degrading	–
Clc1cc(Cl)c(-c2ccc(Cl)c(Cl)c2Cl)cc1Cl [CB-138, 2,2′,3,4,4′,5′-Hexachloro]	1.62	capable of degrading	–
Clc1ccc(Cl)c(-c2cc(Cl)c(Cl)c(Cl)c2Cl)c1 [CB-141, 2,2′,3,4,5,5′-Hexachloro]	3.57	capable of degrading	–
Clc1ccc(Cl)c(-c2c(Cl)c(Cl)cc(Cl)c2Cl)c1 [CB-151, 2,2′,3,5,5′,6-Hexachloro]	2.04	are degraded	–
Clc1cc(Cl)c(-c2cc(Cl)c(Cl)c(Cl)c2Cl)cc1Cl [CB-180, 2,2′,3,4,4′,5,5′-Heptachloro]	1.64	degraded sufficiently	Degradation by Pseudomonas CH07 (in words) (listed as cb-180): capable of degrading
Clc1ccc(-c2c(Cl)c(Cl)c(Cl)c(Cl)c2Cl)c(Cl)c1 [CB-181, 2,2′,3,4,4′,5,6-Heptachloro]	2.87	degraded sufficiently; also recorded: completely degraded	Degradation by Pseudomonas CH07 (in words) (listed as cb-181): are degraded
